According to the supplement of paper PMC10032668:
± gives the standard deviation of the averaged measurements. Some of the results follow. The list holds hits alone, and they repeat only in part.

By UniProt entry, the sequences of proteins in these tests, tags left out.
CAPZB, P47756, UniProt P47756, whole entry: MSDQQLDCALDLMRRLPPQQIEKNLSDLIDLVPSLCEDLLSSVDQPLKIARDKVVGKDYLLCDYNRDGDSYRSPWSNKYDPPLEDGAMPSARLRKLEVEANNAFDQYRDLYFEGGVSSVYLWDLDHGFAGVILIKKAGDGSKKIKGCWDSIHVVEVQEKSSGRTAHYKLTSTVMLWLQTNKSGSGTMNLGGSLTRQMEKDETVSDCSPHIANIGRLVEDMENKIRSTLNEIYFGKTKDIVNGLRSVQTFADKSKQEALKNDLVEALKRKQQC
MORF4L2, Q15014, UniProt Q15014, whole entry: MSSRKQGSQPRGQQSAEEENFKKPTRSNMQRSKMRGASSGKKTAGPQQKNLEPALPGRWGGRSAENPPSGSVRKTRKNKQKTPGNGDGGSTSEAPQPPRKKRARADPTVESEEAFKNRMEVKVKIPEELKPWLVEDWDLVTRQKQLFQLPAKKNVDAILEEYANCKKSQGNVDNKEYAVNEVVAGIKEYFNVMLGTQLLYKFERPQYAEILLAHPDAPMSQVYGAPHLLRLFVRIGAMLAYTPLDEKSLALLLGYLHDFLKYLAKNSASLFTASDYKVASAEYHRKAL
PIN1, Q13526, UniProt Q13526, whole entry: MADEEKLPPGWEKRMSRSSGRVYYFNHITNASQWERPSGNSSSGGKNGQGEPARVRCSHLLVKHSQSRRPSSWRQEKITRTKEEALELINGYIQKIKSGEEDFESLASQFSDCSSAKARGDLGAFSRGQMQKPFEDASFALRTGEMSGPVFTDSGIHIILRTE
TUBB6, Q9BUF5, UniProt Q9BUF5, whole entry: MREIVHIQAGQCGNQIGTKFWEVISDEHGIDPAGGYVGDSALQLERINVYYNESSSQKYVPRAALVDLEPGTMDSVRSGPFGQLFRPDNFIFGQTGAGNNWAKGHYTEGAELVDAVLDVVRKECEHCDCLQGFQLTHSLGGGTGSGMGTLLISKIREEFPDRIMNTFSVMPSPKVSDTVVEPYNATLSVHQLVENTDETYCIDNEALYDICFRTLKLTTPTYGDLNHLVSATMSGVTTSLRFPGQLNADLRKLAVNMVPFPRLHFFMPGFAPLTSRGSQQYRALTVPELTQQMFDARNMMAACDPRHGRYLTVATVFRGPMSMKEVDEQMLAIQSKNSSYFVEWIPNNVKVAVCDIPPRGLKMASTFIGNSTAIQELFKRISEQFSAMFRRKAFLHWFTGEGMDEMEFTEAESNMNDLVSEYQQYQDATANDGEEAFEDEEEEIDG
ATG3, Q9NT62, UniProt Q9NT62, whole entry: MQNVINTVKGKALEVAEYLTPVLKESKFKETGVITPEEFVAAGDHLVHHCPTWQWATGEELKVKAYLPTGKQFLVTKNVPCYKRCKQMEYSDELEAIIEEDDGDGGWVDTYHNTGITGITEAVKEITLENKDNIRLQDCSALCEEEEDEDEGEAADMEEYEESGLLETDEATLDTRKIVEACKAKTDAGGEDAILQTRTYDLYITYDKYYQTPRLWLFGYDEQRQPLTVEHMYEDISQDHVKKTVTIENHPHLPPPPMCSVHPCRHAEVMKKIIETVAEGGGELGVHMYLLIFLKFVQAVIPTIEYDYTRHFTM
CAPRIN1, Q14444, UniProt Q14444, whole entry: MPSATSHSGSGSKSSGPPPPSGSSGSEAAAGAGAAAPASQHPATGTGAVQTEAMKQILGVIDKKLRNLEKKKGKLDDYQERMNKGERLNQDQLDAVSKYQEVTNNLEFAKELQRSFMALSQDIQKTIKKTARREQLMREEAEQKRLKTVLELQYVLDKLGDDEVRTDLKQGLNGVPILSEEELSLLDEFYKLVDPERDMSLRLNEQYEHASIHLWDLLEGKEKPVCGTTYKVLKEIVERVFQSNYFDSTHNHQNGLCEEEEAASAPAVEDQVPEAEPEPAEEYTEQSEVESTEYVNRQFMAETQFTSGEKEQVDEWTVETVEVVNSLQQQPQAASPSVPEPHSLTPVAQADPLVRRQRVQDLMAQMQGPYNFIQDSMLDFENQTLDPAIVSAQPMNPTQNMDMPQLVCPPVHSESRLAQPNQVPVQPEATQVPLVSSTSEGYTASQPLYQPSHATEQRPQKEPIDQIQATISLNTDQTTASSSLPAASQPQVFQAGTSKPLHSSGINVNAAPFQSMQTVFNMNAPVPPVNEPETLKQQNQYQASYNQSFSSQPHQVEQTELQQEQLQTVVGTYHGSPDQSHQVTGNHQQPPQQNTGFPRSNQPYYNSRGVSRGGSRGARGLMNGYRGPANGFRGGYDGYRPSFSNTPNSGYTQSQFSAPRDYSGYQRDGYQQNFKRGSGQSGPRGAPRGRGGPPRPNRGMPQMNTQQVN
CCNB1, P14635, UniProt P14635, whole entry: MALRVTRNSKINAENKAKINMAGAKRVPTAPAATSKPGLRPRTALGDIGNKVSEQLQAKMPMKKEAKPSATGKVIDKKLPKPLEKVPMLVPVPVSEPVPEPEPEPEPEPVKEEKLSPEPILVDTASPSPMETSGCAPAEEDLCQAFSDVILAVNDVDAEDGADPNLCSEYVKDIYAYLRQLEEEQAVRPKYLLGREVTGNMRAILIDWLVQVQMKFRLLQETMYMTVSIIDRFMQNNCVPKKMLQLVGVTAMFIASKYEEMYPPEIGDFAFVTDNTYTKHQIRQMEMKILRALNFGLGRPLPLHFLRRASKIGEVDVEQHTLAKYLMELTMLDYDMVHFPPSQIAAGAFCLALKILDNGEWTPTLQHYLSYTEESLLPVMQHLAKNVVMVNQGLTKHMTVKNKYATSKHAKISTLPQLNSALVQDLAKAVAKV
DMAP1, Q9NPF5, UniProt Q9NPF5, whole entry: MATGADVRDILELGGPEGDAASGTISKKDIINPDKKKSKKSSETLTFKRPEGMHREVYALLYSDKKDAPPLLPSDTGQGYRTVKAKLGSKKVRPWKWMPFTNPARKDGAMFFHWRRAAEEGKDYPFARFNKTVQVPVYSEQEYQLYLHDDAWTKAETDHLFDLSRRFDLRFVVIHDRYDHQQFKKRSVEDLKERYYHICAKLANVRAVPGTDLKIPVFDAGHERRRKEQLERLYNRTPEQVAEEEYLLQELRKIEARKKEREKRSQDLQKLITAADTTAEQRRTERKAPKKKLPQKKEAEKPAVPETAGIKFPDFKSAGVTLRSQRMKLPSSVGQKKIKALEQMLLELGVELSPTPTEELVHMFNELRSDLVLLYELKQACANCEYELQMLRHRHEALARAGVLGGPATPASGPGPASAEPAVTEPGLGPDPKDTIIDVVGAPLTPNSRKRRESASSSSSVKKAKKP
EIF1, P41567, UniProt P41567, whole entry: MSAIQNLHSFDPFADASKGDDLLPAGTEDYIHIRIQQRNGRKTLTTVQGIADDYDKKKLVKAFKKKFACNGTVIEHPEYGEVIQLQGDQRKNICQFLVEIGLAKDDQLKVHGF

Tests used:
Experiment in all cases: PRISMA enrichment of interactor (LFQ) in peptide spot vs all other peptide spots (log2 fold change); higher = stronger / more specific binding of the interactor to the peptide
ALYREF, Q86V81 = biological target: ALYREF, Q86V81
Procedure: (§1)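 PRISMA: 15-aa overlapping tiles (offset 8 aa) of 60 microproteins, plus SOS1/GLUT1 control peptides, were spot-synthesized on cellulose membranes in triplicate. Membranes were incubated with benzonase-treated HEK293T lysate, and bound proteins were identified by LC-MS/MS with LFQ. Enrichment is the log2 fold change of each protein in one spot versus all other spots. Only interactors passing the significance cutoff are listed.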

C11orf98, E9PRG8 = biological target: C11orf98, E9PRG8
Procedure: as §1

C19orf53, Q9UNZ5 = biological target: C19orf53, Q9UNZ5
Procedure: as §1

CAPZB, P47756 = biological target: CAPZB, P47756
Procedure: as §1

CCDC137, Q6PK04 = biological target: CCDC137, Q6PK04
Procedure: as §1

CENPB, P07199 = biological target: CENPB, P07199
Procedure: as §1

CHTOP, Q9Y3Y2 = biological target: CHTOP, Q9Y3Y2
Procedure: as §1

CLTA, P09496 = biological target: CLTA, P09496
Procedure: as §1

CLTB, P09497 = biological target: CLTB, P09497
Procedure: as §1

DDX27, Q96GQ7 = biological target: DDX27, Q96GQ7
Procedure: as §1

DECR1, Q16698 = biological target: DECR1, Q16698
Procedure: as §1

EMG1, Q92979 = biological target: EMG1, Q92979
Procedure: as §1

GABARAPL2, P60520 = biological target: GABARAPL2, P60520
Procedure: as §1

MORF4L2, Q15014 = biological target: MORF4L2, Q15014
Procedure: as §1

PIN1, Q13526 = biological target: PIN1, Q13526
Procedure: as §1

PYCR1, P32322 = biological target: PYCR1, P32322
Procedure: as §1

PYCR2, Q96C36 = biological target: PYCR2, Q96C36
Procedure: as §1

SDCBP, O00560 = biological target: SDCBP, O00560
Procedure: as §1

TBC1D10B, Q4KMP7 = biological target: TBC1D10B, Q4KMP7
Procedure: as §1

TUBB6, Q9BUF5 = biological target: TUBB6, Q9BUF5
Procedure: as §1

UTP11, Q9Y3A2 = biological target: UTP11, Q9Y3A2
Procedure: as §1

WDR55, Q9H6Y2 = biological target: WDR55, Q9H6Y2
Procedure: as §1

ATG3, Q9NT62 = biological target: ATG3, Q9NT62
Procedure: as §1

BUD23, O43709 = biological target: BUD23, O43709
Procedure: as §1

CALD1, Q05682 = biological target: CALD1, Q05682
Procedure: as §1

CAPRIN1, Q14444 = biological target: CAPRIN1, Q14444
Procedure: as §1

CCDC86, Q9H6F5 = biological target: CCDC86, Q9H6F5
Procedure: as §1

CCNB1, P14635 = biological target: CCNB1, P14635
Procedure: as §1

CDCA5, Q96FF9 = biological target: CDCA5, Q96FF9
Procedure: as §1

CDKN2AIPNL, Q96HQ2 = biological target: CDKN2AIPNL, Q96HQ2
Procedure: as §1

CIRBP, Q14011 = biological target: CIRBP, Q14011
Procedure: as §1

CSRP2, Q16527 = biological target: CSRP2, Q16527
Procedure: as §1

DDX42, Q86XP3 = biological target: DDX42, Q86XP3
Procedure: as §1

DDX5, P17844 = biological target: DDX5, P17844
Procedure: as §1

DMAP1, Q9NPF5 = biological target: DMAP1, Q9NPF5
Procedure: as §1

DNAJC8, O75937 = biological target: DNAJC8, O75937
Procedure: as §1

ECHS1, P30084 = biological target: ECHS1, P30084
Procedure: as §1

EDF1, O60869 = biological target: EDF1, O60869
Procedure: as §1

EIF1, P41567 = biological target: EIF1, P41567
Procedure: as §1

EIF4H, Q15056 = biological target: EIF4H, Q15056
Procedure: as §1

EWSR1, Q01844 = biological target: EWSR1, Q01844
Procedure: as §1

FKBP2, P26885 = biological target: FKBP2, P26885
Procedure: as §1

FUS, P35637 = biological target: FUS, P35637
Procedure: as §1

G3BP1, Q13283 = biological target: G3BP1, Q13283
Procedure: as §1

G3BP2, Q9UN86 = biological target: G3BP2, Q9UN86
Procedure: as §1

HMGA1, P17096 = biological target: HMGA1, P17096
Procedure: as §1

HMGB1, P09429 = biological target: HMGB1, P09429
Procedure: as §1

HMGB2, P26583 = biological target: HMGB2, P26583
Procedure: as §1

HMGN1, P05114 = biological target: HMGN1, P05114
Procedure: as §1

Binder: TPEELFHLLGADSQ [GLUT1_MUT_1]
- PRISMA enrichment of interactor (log2) (ALYREF, Q86V81): 5.97
- PRISMA enrichment of interactor (log2) (C11orf98, E9PRG8): 4.86
- PRISMA enrichment of interactor (log2) (C19orf53, Q9UNZ5): 7.98
- PRISMA enrichment of interactor (log2) (CAPZB, P47756): 5.63
- PRISMA enrichment of interactor (log2) (CCDC137, Q6PK04): 5.21
- PRISMA enrichment of interactor (log2) (CENPB, P07199): 4.54
- PRISMA enrichment of interactor (log2) (CHTOP, Q9Y3Y2): 5.09
- PRISMA enrichment of interactor (log2) (CLTA, P09496): 6.28
- PRISMA enrichment of interactor (log2) (CLTB, P09497): 4.99
- PRISMA enrichment of interactor (log2) (DDX27, Q96GQ7): 5.83
- PRISMA enrichment of interactor (log2) (DECR1, Q16698): 5.28
- PRISMA enrichment of interactor (log2) (EMG1, Q92979): 5.03
- PRISMA enrichment of interactor (log2) (GABARAPL2, P60520): 5.48
- PRISMA enrichment of interactor (log2) (MORF4L2, Q15014): 5.22
- PRISMA enrichment of interactor (log2) (PIN1, Q13526): 4.71
- PRISMA enrichment of interactor (log2) (PYCR1, P32322): 5.34
- PRISMA enrichment of interactor (log2) (PYCR2, Q96C36): 5.28
- PRISMA enrichment of interactor (log2) (SDCBP, O00560): 4
- PRISMA enrichment of interactor (log2) (TBC1D10B, Q4KMP7): 4.74
- PRISMA enrichment of interactor (log2) (TUBB6, Q9BUF5): 6.21
- PRISMA enrichment of interactor (log2) (UTP11, Q9Y3A2): 5.09
- PRISMA enrichment of interactor (log2) (WDR55, Q9H6Y2): 3.96

Binder: FVVAVGAEYYLESLN [NDUFB3]
- PRISMA enrichment of interactor (log2) (ALYREF, Q86V81): 5.01 ± 0.58
- PRISMA enrichment of interactor (log2) (ATG3, Q9NT62): 5.02
- PRISMA enrichment of interactor (log2) (BUD23, O43709): 3.98
- PRISMA enrichment of interactor (log2) (C19orf53, Q9UNZ5): 6.93
- PRISMA enrichment of interactor (log2) (CALD1, Q05682): 5.48
- PRISMA enrichment of interactor (log2) (CAPRIN1, Q14444): 5.9
- PRISMA enrichment of interactor (log2) (CCDC86, Q9H6F5): 4.44
- PRISMA enrichment of interactor (log2) (CCNB1, P14635): 4.56
- PRISMA enrichment of interactor (log2) (CDCA5, Q96FF9): 4.65
- PRISMA enrichment of interactor (log2) (CDKN2AIPNL, Q96HQ2): 3.92
- PRISMA enrichment of interactor (log2) (CHTOP, Q9Y3Y2): 6.11
- PRISMA enrichment of interactor (log2) (CIRBP, Q14011): 5.74
- PRISMA enrichment of interactor (log2) (CSRP2, Q16527): 5.82
- PRISMA enrichment of interactor (log2) (DDX42, Q86XP3): 6.36
- PRISMA enrichment of interactor (log2) (DDX5, P17844): 6.13
- PRISMA enrichment of interactor (log2) (DMAP1, Q9NPF5): 4.05
- PRISMA enrichment of interactor (log2) (DNAJC8, O75937): 4.79
- PRISMA enrichment of interactor (log2) (ECHS1, P30084): 8.46
- PRISMA enrichment of interactor (log2) (EDF1, O60869): 4.95
- PRISMA enrichment of interactor (log2) (EIF1, P41567): 4.97
- PRISMA enrichment of interactor (log2) (EIF4H, Q15056): 6.5
- PRISMA enrichment of interactor (log2) (EWSR1, Q01844): 6.53
- PRISMA enrichment of interactor (log2) (FKBP2, P26885): 4.06
- PRISMA enrichment of interactor (log2) (FUS, P35637): 5.74
- PRISMA enrichment of interactor (log2) (G3BP1, Q13283): 5.24
- PRISMA enrichment of interactor (log2) (G3BP2, Q9UN86): 6.34
- PRISMA enrichment of interactor (log2) (HMGA1, P17096): 5.75
- PRISMA enrichment of interactor (log2) (HMGB1, P09429): 5.97
- PRISMA enrichment of interactor (log2) (HMGB2, P26583): 4.05
- PRISMA enrichment of interactor (log2) (HMGN1, P05114): 5.43
